Source: paper doi:10.1101/150805
These are yes or no findings as the source states them, for the method shown. Binding seen in cells or lysates may run through a third protein. A result given as binding can be weak or reduced; the word gives no strength.

Biological target: LUC7A-YFP (LETHAL UNLESS CBC 7 A, AthLUC7A) (Arabidopsis thaliana)
Experiment: co-IP

Row | Binder | binding
1 | ABH1/CBP80 (protein, UniProt Q9SIU2 1-848) MSNWKTLLLRIGEKGPEYGTSSDYKDHIETCFGVIRREIERSGDQVLPFLLQCAEQLPHKIPLYGTLIGLLNLENEDFVQKLVESVHANFQVALDSGNCNSIRILLRFMTSLLCSKVIQPASLIVVFETLLSSAATTVDEEKGNPSWQPQADFYVICILSSLPWGGSELAEQVPDEIERVLVGIQAYLSIRKNSSTSGLNFFHNGEFESSLAEKDFVEDLLDRIQSLASNGWKLESVPRPHLSFEAQLVAGKFHELRPIKCMEQPSPPSDHSRAYSGKQKHDALTRYPQRIRRLNIFPANKMEDVQPIDRFVVEEYLLDVLFYLNGCRKECASYMANLPVTFRYEYLMAETLFSQILLLPQPPFKTLYYTLVIMDLCKALPGAFPAVVAGAVRALFEKISDLDMESRTRLILWFSHHLSNFQFIWPWEEWAFVLDLPKWAPKRVFVQEILQREVRLSYWDKIKQSIENATALEELLPPKAGPNFMYSLEEGKEKTEEQQLSAELSRKVKEKQTARDMIVWIEETIYPVHGFEVTLTIVVQTLLDIGSKSFTHLVTVLERYGQVFSKLCPDNDKQVMLLSQVSTYWKNNVQMTAVAIDRMMGYRLVSNQAIVRWVFSPENVDQFHVSDQPWEILGNALNKTYNRISDLRKDISNITKNVLVAEKASANARVELEAAESKLSLVEGEPVLGENPAKMKRLKSTVEKTGEAELSLRESLEAKEALLNRALSETEVLLLLLFQSFLGVLKERLPDPTKVRSVQDLKSIGAEDDKPSAMDVDSENGNPKKSCEVGEREQWCLSTLGYLTAFTRQYASEIWPHMEKLESEVFSGEDVHPLFLQAISSALQFPLH | binds
2 | SERRATE (SE) (protein, UniProt Q9ZVD0 1-720) MADVNLPPSDSVDNRLPEKSTSSSPPPPPPSSSLPQQEQEQDQQQLPLRRERDSRERRDERDIERPPPNRRERDRSPLPPPRRDYKRRPSLSPPPPYRDRRHSPPQRRSPPQKRYRRDDNGYDGRRGSPRGGYGPPDRRFGYDHGGGYDREMGGRPGYGDERPHGRFMGRYQDWEGGRGGYGDASNSGNPQRDGLMSYKQFIQELEDDILPSEAERRYQEYKSEYITTQKRAFFNTHKEEDWLKNKYHPTNLLSVIERRNDLAQKVAKDFLLDLQSGTLDLGPAVTALNKSGRTSEPNSEDEAAGVGKRKRHGMGGAKENELLSAAPKAPSFTSDPKRILTDVEQTQALVRKLDSEKKIEENVLQGSETEKSGREKLHSGSTGPVVIIRGLTSVKGLEGVELLDTLVTYLWRVHGLDYYGKVETNEAKGLRHVRAEGKVSDAKGDENESKFDSHWQERLKGQDPLEVMAAKEKIDAAATEALDPHVRKIRDEKYGWKYGCGAKGCTKLFHAAEFVYKHLKLKHTELVTELTTKVREELYFQNYMNDPNAPGGQPATQQSGPRDRPIRRKPSMENRLRDDRGGRRERDGRANGNDRNDRSEDQQRGDNDGGNPGEVGYDAFGGQGGVHVPPFLSDINPPPMLMPVPGAGPLGPFVPAPPEVAMQMFRDPSGPNPPFEGSGRGGPAPFLLSPAFRQDPRRLRSYQDLDAPEEEVTVIDYRSL | binds
